38 targets from the supplement of paper PMC11006884 can be followed below.

Amino acid sequences for entries named in this document (tags omitted). A change or cut given only in a name is not applied to a line headed by its entry.
UniProt P09874, whole entry, looked up: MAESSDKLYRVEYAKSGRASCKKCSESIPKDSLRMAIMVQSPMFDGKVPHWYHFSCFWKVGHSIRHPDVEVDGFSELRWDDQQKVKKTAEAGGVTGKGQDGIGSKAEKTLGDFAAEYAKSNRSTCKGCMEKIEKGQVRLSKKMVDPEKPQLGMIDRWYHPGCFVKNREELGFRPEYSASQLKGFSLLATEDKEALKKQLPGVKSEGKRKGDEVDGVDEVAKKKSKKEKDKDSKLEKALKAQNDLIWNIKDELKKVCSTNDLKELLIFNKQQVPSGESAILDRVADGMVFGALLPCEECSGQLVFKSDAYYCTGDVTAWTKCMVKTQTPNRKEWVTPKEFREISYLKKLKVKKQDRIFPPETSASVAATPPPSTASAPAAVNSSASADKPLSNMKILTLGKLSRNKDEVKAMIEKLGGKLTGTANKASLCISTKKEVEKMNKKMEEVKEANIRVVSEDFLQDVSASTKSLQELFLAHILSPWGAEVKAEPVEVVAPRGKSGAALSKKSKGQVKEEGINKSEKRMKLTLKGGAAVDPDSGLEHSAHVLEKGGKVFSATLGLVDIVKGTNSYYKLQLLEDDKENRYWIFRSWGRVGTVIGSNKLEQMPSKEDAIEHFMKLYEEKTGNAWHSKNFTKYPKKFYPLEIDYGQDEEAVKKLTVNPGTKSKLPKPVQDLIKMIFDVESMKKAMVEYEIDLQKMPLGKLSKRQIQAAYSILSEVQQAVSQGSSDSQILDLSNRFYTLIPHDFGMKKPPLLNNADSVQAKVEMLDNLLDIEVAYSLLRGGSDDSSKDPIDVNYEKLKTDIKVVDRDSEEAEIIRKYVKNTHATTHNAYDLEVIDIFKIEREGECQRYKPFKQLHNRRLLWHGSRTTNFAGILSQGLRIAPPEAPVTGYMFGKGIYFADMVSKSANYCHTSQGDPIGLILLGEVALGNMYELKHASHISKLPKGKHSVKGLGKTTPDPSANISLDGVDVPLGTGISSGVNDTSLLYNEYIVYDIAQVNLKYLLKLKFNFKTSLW
UniProt P09110: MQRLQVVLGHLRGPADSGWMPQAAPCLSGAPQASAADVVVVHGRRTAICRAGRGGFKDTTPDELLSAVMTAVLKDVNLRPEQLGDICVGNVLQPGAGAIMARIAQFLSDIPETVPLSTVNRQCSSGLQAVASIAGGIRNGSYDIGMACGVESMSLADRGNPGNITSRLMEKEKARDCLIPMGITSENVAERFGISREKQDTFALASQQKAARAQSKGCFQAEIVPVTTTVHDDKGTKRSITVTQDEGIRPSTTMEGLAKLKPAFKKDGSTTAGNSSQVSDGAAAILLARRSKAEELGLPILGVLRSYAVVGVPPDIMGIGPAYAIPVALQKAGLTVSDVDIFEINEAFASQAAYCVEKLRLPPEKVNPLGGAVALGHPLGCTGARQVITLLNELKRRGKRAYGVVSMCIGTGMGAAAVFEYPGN
UniProt P09234, whole entry, looked up: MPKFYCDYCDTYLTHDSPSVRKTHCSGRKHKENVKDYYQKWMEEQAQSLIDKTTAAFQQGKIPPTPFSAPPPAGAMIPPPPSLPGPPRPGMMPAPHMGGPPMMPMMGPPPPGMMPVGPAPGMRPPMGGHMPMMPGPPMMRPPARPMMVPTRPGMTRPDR
UniProt P07947, whole entry, looked up: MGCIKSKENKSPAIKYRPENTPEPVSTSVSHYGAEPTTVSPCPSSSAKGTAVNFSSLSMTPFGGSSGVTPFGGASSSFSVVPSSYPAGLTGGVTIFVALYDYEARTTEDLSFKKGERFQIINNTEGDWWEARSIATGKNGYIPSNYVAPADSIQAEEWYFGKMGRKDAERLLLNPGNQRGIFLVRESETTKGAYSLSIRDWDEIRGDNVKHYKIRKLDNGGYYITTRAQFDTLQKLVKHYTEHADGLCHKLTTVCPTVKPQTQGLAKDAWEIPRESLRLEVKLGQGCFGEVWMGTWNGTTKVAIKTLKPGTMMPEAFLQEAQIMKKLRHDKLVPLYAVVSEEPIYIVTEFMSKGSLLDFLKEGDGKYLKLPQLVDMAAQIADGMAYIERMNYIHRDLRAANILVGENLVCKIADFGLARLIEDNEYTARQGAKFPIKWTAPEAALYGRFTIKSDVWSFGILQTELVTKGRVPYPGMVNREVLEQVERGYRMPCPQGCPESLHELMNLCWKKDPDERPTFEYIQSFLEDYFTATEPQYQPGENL
UniProt P0DMV8, whole entry, looked up: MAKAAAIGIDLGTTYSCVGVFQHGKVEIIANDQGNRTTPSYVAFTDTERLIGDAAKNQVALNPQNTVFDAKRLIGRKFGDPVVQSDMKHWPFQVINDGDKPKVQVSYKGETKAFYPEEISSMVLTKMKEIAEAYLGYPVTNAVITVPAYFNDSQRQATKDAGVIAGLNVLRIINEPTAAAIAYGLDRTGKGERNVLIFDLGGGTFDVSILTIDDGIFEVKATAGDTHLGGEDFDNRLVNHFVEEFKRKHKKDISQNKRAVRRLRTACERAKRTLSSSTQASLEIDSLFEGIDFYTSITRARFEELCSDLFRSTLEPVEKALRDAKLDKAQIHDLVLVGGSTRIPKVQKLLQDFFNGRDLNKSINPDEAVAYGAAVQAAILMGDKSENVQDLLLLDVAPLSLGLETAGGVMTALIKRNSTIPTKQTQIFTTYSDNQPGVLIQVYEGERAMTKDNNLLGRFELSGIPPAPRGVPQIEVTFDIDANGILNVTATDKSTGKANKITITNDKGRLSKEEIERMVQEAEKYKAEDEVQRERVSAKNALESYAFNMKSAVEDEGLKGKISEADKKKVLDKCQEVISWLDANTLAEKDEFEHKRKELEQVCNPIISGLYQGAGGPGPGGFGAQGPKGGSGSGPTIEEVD
UniProt P13807: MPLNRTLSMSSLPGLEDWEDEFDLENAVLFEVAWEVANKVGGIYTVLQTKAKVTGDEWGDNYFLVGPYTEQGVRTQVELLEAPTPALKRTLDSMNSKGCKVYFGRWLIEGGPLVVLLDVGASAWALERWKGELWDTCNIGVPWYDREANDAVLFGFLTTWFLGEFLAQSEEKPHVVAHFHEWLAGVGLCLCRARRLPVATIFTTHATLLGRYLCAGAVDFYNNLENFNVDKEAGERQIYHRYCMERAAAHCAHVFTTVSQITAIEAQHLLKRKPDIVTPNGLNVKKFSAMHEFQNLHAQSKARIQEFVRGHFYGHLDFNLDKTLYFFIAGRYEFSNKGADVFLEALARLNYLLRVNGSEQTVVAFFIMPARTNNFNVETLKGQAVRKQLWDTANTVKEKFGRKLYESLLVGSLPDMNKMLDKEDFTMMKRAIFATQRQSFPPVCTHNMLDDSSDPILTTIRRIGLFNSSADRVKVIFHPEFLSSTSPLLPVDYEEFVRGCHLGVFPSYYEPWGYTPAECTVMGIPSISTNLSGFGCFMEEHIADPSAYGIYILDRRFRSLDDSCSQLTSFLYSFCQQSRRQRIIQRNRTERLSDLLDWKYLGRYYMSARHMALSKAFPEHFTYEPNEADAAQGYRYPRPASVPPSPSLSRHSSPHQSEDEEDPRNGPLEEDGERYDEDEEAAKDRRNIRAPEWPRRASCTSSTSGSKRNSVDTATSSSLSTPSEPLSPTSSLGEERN
UniProt P08133: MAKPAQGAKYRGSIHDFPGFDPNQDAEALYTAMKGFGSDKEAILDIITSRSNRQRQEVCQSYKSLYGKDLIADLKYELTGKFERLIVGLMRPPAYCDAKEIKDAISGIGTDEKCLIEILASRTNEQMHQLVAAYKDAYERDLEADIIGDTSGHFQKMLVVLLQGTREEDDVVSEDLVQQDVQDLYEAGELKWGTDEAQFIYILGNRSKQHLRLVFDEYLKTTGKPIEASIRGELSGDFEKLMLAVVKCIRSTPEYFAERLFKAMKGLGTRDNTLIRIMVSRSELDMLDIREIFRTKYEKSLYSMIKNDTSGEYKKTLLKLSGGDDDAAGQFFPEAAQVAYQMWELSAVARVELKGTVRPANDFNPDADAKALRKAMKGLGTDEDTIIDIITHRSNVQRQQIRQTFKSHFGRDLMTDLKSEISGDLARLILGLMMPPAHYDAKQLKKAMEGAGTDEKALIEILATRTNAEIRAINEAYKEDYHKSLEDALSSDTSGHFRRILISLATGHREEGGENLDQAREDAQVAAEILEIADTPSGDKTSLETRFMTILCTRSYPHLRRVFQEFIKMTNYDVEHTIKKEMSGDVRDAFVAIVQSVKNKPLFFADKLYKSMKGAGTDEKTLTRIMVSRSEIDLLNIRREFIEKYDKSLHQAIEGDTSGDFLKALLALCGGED
UniProt P11586, whole entry, looked up: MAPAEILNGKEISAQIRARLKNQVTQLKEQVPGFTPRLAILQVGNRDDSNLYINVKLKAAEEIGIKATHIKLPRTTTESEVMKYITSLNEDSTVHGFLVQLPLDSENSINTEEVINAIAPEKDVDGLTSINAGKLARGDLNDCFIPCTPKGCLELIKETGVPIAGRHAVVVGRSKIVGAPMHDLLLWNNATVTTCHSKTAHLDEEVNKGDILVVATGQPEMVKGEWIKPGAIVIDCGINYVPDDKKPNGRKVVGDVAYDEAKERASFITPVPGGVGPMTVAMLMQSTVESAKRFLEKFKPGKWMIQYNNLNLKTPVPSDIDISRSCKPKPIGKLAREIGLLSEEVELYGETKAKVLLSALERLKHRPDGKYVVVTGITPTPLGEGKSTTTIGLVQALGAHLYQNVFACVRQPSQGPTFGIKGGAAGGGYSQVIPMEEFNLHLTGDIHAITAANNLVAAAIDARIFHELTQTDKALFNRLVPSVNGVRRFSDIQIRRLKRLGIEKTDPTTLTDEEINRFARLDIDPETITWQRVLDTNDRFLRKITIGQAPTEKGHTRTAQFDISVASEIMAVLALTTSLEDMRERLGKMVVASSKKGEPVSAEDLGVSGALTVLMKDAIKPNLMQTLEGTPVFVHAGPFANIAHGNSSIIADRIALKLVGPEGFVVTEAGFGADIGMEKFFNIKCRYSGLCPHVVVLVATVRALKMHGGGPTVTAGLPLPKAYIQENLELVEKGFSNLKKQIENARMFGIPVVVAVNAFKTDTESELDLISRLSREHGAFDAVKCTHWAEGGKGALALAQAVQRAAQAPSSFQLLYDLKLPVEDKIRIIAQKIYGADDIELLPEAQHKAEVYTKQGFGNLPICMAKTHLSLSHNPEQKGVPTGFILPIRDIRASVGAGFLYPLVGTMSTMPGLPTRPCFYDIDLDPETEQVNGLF
UniProt P10809, whole entry, looked up: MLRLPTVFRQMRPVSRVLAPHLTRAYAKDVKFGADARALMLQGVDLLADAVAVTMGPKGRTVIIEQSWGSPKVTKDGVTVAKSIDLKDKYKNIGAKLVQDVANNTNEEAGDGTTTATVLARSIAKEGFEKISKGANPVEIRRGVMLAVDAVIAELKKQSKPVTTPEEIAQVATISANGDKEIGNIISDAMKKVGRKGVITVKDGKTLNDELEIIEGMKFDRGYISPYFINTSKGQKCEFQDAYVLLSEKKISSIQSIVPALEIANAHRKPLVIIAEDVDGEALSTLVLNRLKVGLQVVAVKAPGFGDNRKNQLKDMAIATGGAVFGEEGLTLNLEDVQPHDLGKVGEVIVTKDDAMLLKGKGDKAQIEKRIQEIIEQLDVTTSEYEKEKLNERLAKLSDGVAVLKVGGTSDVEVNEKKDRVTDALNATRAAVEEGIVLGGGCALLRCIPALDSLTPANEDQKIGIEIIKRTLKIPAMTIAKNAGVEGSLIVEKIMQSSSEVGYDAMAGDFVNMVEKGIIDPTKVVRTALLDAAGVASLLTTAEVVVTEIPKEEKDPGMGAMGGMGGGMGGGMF
UniProt P12277: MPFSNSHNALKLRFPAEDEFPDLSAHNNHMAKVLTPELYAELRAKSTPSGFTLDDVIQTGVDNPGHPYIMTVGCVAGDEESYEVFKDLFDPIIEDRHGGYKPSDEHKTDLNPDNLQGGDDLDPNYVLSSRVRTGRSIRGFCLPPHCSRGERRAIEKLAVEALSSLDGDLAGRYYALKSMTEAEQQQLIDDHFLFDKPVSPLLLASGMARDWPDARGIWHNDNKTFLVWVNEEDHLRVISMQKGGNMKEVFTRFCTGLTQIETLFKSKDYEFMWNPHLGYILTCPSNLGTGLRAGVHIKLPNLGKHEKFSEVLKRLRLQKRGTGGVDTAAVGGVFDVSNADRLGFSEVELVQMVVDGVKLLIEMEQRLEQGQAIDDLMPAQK
UniProt P10644, whole entry, looked up: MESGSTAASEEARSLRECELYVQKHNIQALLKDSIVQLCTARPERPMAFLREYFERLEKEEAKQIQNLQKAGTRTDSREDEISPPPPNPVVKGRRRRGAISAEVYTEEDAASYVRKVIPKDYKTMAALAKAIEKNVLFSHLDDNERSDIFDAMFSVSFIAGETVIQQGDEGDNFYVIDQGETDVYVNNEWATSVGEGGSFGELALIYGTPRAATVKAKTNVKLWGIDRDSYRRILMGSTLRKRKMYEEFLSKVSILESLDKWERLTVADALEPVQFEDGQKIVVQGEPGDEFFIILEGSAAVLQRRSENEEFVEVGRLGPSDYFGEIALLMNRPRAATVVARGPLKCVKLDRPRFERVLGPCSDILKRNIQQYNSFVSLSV

Only a part is listed here, and it is no random draw.

Compound in the test: COC(=O)C#Cc1ccccc1 [methyl 3-phenylpropiolate]
The test can be described thus: log2 ratio of iodoacetamide-alkyne labeling of the cysteine site, DMSO over compound (competition); higher = stronger covalent engagement of the cysteine by the compound, active = 1 or more. The conditions noted are these: 500 µM; treatment time 1 h; system: HEK293T cell lysate. The procedure, abridged:
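Reporter intensities give each cysteine's log2 competition ratio as the mean of control channels over the mean of compound channels. The samples were HEK293T lysate (2 mg/mL) given vehicle or electrophile (500 µM, 1 h, ambient temperature), then iodoacetamide alkyne (1 h), followed by click coupling to sCIP-TMT reagents, pooling, trypsin digestion overnight at 37 °C, streptavidin enrichment, acid elution, Orbitrap Eclipse LC-MS/MS with FAIMS and FragPipe quantification. Duplicate channels and three replicates were run, and cysteines quantified in only one replicate were discarded.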
As to PARP1 C256 (UniProt P09874), the “log2 ratio of iodoacetamide-alkyne labeling” value (“log2 ratio” below) is inactive: 0.249.

As to ACAA1 C381 (UniProt P09110), the “log2 ratio” value was inactive: 0.148.

HSP90AB1 C412 (UniProt P08238): the “log2 ratio” value is inactive: 0.121.

Regarding SNRPC C25 (UniProt P09234), the “log2 ratio” value is inactive: 0.153.

For UniProt P07947_C42, the “log2 ratio” value was inactive: 0.434.

HSP90AB1 C589 (UniProt P08238): the “log2 ratio” value was inactive: 0.0899.

UniProt P0DMV8_C306: the “log2 ratio” value was inactive: -0.0873.

Turning to EEF2 C751 (UniProt P13639), the “log2 ratio” value is inactive: 0.116.

Turning to GYS1 C699 (UniProt P13807), the “log2 ratio” value is inactive: 0.526.

In the case of ANXA6 C248 (UniProt P08133), the “log2 ratio” value is inactive: -0.142.

Turning to CAPN2 C301 (UniProt P17655), the “log2 ratio” value is active: 2.17.

Take SNRPB C43 (UniProt P14678): the “log2 ratio” value was inactive: 0.0808.

As for PFKM C114 (UniProt P08237), the “log2 ratio” value is inactive: -0.169.

IMPDH2 C339 (UniProt P12268): the “log2 ratio” value was inactive: 0.563.

For PEPD C482 (UniProt P12955), the “log2 ratio” value was inactive: 0.545.

HSPA8 C603 (UniProt P11142): the “log2 ratio” value was inactive: 0.221.

Turning to RNH1 C45 (UniProt P13489), the “log2 ratio” value is inactive: 0.383.

Regarding CAPN2 C82 (UniProt P17655), the “log2 ratio” value is inactive: 0.0602.

For TPT1 C28 (UniProt P13693), the “log2 ratio” value was inactive: 0.212.

As to EEF2 C693 (UniProt P13639), the “log2 ratio” value was inactive: 0.0212.

As to ATP2A2 C997 (UniProt P16615), the “log2 ratio” value was inactive: 0.368.

Regarding IMPDH2 C95 (UniProt P12268), the “log2 ratio” value is inactive: -0.293.

As for ARAF C192 (UniProt P10398), the “log2 ratio” value is inactive: 0.205.

Turning to MTHFD1 C143 (UniProt P11586), the “log2 ratio” value is inactive: -0.0254.

U2AF1L5 C169 (UniProt P0DN76): the “log2 ratio” value is inactive: -0.00444.

As for SP1 C604 (UniProt P08047), the “log2 ratio” value is inactive: -0.0454.

With IMPDH2 C140 (UniProt P12268), the “log2 ratio” value is active: 1.11.

Regarding JUP C511 (UniProt P14923), the “log2 ratio” value is inactive: 0.463.

In the case of HSPD1 C237 (UniProt P10809), the “log2 ratio” value is inactive: 0.358.

As for TOP2A C405 (UniProt P11388), the “log2 ratio” value is inactive: 0.186.

In the case of CDK4 C215 (UniProt P11802), the “log2 ratio” value is inactive: 0.304.

For the target EEF2 C557 (UniProt P13639), the “log2 ratio” value was inactive: -0.298.

In the case of TOP2A C216 (UniProt P11388), the “log2 ratio” value is inactive: 0.425.

For the target CKB C283 (UniProt P12277), the “log2 ratio” value was inactive: 0.217.

For HNRNPL C404 (UniProt P14866), the “log2 ratio” value was inactive: -0.0806.

With PRKAR1A C18 (UniProt P10644), the “log2 ratio” value is inactive: 0.653.

PCNA C135 (UniProt P12004): the “log2 ratio” value is inactive: 0.0259.

With PDIA4 C206 (UniProt P13667), the “log2 ratio” value is inactive: 0.77.
